Construct, isoform or probe ends are uncertain for at least one entry. Results from cells or extracts need not show a direct contact. For part of these data: Negatives hold for the conditions tested. For part of these data: Tags and fusion partners may be left off the protein sequences shown. For part of these data: The comparison behind a weaker result is the experiment's own reference, which may not be listed here.
Assays:
[1] = biological target: T1, EcR-RFP-His (Helicoverpa armigera) (UniProt B9UCQ4); assay: EMSA with supershift; settings: cells treated with 20E (5 uM, 6 h); 10 mM Tris-HCl pH 7.5, 1 mM MgCl2, 40 mM KCl, 0.1 mg/ml BSA, 5% glycerol; ~15 ug nuclear protein, 200 fmol FAM probe, room temperature 15 min; 6% PAGE in 0.5x TBE; protein in an extract; protein details: C-terminal RFP-His (from name); label: FAM
T1 sequence (looked up, limits assumed): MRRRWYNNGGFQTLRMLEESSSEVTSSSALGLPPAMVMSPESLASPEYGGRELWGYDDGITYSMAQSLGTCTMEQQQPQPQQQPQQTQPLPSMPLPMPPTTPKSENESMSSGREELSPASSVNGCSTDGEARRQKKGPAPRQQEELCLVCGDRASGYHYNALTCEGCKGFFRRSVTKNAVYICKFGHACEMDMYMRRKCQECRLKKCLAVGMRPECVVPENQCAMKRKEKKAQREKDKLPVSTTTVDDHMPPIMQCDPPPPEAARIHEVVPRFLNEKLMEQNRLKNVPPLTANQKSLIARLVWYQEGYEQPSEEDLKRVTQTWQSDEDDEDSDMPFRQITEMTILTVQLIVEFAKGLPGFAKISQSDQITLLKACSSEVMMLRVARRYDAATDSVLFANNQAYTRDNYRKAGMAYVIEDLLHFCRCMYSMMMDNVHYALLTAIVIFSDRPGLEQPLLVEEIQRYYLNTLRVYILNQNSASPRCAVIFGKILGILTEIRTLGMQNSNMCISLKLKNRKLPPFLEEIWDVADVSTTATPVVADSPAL

[2] = biological target: T1, EcR-RFP-His (Helicoverpa armigera); assay: EMSA; settings: cells treated with 20E or DMSO; 10 mM Tris-HCl pH 7.5, 1 mM MgCl2, 40 mM KCl, 0.1 mg/ml BSA, 5% glycerol; ~15 ug nuclear protein, 200 fmol FAM probe, room temperature 15 min; 6% PAGE in 0.5x TBE; protein in an extract; protein details: C-terminal RFP-His (from name); label: FAM
[3] = system: KLF15-RFP-His (Helicoverpa armigera); assay: EMSA; settings: 10 mM Tris-HCl pH 7.5, 1 mM MgCl2, 40 mM KCl, 0.1 mg/ml BSA, 5% glycerol, ~15 ug nuclear protein, 200 fmol FAM probe, room temperature 15 min, 6% PAGE in 0.5x TBE, protein in an extract, protein details: C-terminal RFP-His (from name), label: FAM
[4] = system: KLF15-RFP-His (Helicoverpa armigera); assay: EMSA with supershift and competition; settings: 20E-treated cells, 50-fold unlabeled probe reduces the shift; 10 mM Tris-HCl pH 7.5, 1 mM MgCl2, 40 mM KCl, 0.1 mg/ml BSA, 5% glycerol; ~15 ug nuclear protein, 200 fmol FAM probe, room temperature 15 min; 6% PAGE in 0.5x TBE; protein in an extract; protein details: C-terminal RFP-His (from name); label: FAM

TCTCAATTACGTTCAATAAACGGCTTTGTTAA (double strand) [Klf15 promoter EcRE probe WT]
binding result [1]: binds

TCTCAATTACATGTAATAAACGGCTTTGTTAA (double strand) [Klf15 promoter EcRE probe MT]
binding result [2]: no binding

CCCGCGGTTTCACCCTCGTCCTGTGGGAACTGCTGCCCG (double strand) [Atg8 promoter KLF bs probe WT]
binding result [3]: binds

TGAAAACACCCTGACGCCATCTTGTGTTGAAGCTCGCGCG (double strand) [Pepck promoter KLF bs probe WT]
binding result [4]: binds

TGAAAATCCCATGACGCCATCTTGTGTTGAAGCTCGCGCG (double strand) [Pepck promoter KLF bs probe MT]
binding result ([3]; point mutation inhibited binding): binds more weakly

CCCGCGGTTTTCCCATCGTCCTGTGGGAACTGCTGCCCG (double strand) [Atg8 promoter KLF bs probe MT]
binding result [3]: no binding
